Experimental data taken from the supplement of paper PMC12823440, “Inhibitors supercharge kinase turnover through native proteolytic circuits” (Nature, 2025).
The list shows a part of the results. Hit calls seldom repeat between salt and free forms of one compound.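 Kinases were expressed as nanoluciferase fusions in K562 cells and luminescence was read every 4 h between 2 and 18 h as percent of control, DMSO set to 100% and a positive control to 0%. A time point counts as decreased when the signal drops significantly (2 sigma). The hit call is the authors' own, does not follow from the count of time points alone, and its rule is not shown.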

Amino acid sequences for entries named in this document (tags omitted). A change or cut given only in a name is not applied to a line headed by its entry.
UniProt Q15208: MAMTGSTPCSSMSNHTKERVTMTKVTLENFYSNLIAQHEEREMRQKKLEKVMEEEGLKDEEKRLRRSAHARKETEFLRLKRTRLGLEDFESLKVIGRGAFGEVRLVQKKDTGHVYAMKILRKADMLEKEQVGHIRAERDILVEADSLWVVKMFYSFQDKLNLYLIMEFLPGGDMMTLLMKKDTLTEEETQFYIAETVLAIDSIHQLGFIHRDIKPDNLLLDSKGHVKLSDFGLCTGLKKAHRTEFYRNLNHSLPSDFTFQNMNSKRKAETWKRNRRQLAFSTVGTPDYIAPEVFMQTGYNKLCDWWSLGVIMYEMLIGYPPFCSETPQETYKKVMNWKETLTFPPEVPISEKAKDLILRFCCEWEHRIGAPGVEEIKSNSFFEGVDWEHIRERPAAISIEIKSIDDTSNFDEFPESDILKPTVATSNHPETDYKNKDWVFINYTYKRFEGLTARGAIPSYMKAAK
UniProt P29597: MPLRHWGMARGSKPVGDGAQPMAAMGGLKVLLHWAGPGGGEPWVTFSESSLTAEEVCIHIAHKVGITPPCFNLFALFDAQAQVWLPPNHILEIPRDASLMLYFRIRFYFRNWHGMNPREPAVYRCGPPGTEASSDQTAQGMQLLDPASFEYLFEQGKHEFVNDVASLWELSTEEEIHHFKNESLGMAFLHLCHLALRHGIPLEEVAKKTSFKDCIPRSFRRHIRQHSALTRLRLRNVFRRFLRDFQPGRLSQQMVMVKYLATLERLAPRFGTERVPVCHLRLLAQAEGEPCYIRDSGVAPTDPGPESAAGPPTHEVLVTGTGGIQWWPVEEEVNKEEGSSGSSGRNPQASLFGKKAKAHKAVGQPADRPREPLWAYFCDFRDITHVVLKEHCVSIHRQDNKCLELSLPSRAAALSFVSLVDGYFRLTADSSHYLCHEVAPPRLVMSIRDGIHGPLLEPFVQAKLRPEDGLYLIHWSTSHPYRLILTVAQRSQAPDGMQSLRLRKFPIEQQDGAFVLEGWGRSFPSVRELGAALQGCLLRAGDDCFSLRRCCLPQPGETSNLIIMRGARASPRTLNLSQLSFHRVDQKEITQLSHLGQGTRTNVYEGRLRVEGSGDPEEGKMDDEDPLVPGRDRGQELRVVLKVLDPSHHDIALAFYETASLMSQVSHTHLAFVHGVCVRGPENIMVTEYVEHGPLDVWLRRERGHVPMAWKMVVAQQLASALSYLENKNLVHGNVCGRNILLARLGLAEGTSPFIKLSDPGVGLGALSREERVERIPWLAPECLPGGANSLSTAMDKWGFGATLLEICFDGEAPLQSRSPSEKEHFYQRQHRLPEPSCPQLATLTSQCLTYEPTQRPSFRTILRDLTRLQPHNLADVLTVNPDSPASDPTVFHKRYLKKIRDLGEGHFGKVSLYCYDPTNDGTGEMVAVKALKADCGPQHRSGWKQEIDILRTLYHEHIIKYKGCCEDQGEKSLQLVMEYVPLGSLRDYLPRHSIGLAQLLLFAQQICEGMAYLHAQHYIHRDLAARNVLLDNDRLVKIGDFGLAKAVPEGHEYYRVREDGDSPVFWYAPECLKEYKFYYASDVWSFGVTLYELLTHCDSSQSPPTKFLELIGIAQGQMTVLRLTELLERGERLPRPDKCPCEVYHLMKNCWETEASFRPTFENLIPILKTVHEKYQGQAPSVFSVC
UniProt Q6PHR2: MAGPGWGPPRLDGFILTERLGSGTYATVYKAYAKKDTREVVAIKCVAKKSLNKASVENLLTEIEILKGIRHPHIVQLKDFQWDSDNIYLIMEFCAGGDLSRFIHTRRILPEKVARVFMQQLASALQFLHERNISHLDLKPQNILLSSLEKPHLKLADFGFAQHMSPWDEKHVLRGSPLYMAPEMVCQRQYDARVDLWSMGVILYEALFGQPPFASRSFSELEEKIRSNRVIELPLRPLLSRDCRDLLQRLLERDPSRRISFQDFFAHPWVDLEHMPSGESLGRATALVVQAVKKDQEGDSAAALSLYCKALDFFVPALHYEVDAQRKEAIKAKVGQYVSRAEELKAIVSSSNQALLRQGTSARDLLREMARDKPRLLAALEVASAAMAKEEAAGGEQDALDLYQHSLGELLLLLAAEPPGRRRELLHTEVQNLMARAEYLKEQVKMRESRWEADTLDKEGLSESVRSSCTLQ
UniProt P00519, whole entry: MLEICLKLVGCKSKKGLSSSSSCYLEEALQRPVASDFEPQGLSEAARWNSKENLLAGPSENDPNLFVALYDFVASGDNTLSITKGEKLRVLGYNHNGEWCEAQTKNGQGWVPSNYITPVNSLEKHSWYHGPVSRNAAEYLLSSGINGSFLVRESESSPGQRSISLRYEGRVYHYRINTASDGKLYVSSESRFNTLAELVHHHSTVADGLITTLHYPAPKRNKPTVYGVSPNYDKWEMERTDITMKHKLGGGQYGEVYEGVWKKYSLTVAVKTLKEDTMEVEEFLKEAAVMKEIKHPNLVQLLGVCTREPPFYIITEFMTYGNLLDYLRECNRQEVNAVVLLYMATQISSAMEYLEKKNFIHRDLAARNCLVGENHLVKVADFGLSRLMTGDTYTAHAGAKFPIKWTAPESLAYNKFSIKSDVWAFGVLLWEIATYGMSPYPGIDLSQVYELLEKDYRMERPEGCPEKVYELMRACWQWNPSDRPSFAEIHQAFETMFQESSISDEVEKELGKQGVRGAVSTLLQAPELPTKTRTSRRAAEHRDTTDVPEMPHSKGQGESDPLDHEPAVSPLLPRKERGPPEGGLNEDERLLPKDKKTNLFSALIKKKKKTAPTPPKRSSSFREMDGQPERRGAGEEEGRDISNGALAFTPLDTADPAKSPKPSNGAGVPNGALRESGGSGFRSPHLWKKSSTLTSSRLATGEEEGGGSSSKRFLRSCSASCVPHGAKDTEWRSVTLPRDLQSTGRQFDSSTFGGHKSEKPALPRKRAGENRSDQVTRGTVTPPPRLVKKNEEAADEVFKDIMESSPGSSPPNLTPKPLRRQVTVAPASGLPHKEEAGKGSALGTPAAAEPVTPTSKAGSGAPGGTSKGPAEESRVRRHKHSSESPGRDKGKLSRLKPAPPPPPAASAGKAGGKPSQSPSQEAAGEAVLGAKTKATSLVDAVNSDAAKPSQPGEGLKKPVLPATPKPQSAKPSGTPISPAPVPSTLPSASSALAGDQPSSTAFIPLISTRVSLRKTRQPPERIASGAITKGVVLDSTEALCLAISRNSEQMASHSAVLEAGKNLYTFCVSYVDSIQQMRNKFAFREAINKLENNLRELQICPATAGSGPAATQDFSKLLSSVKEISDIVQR
UniProt P31749: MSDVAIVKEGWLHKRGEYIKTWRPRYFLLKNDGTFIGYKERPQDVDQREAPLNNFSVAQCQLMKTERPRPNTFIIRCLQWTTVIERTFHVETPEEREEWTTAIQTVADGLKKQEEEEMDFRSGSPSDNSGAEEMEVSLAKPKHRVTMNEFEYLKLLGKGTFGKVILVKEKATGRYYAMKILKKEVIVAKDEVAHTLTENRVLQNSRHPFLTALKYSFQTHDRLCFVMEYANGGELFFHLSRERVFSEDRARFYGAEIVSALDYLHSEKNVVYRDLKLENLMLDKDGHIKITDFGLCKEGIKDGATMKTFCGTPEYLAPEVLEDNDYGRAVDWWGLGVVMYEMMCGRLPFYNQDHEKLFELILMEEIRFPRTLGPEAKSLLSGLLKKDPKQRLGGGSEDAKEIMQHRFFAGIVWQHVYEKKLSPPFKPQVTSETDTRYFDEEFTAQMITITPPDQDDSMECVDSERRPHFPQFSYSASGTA
UniProt O14965: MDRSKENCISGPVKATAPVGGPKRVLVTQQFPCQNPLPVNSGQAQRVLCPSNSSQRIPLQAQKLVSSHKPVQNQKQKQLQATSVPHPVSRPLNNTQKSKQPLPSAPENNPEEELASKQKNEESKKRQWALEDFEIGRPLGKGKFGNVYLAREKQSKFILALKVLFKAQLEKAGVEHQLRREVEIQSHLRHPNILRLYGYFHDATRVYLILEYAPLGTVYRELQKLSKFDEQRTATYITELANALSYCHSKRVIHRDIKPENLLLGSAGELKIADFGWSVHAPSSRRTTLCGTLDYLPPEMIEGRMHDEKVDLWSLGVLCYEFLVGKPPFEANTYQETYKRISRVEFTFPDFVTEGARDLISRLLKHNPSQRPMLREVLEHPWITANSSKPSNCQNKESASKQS
UniProt Q96GD4, whole entry: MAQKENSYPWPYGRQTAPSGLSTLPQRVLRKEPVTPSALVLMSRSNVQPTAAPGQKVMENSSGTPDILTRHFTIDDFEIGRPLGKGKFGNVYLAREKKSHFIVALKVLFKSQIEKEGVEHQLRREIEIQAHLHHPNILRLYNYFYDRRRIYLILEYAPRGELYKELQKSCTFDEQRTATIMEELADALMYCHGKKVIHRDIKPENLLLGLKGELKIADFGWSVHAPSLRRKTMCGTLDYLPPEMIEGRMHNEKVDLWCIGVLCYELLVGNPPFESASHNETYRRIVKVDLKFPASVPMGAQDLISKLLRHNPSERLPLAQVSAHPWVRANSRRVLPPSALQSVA
UniProt Q9UQB9: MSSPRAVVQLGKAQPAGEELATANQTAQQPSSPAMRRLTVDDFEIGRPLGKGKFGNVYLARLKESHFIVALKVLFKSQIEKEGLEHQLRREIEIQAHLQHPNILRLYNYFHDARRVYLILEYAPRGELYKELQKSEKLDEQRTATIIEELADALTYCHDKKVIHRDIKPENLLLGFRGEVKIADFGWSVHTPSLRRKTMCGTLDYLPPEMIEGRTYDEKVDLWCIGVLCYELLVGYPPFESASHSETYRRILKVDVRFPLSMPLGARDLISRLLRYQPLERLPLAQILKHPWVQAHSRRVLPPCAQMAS
UniProt P51813: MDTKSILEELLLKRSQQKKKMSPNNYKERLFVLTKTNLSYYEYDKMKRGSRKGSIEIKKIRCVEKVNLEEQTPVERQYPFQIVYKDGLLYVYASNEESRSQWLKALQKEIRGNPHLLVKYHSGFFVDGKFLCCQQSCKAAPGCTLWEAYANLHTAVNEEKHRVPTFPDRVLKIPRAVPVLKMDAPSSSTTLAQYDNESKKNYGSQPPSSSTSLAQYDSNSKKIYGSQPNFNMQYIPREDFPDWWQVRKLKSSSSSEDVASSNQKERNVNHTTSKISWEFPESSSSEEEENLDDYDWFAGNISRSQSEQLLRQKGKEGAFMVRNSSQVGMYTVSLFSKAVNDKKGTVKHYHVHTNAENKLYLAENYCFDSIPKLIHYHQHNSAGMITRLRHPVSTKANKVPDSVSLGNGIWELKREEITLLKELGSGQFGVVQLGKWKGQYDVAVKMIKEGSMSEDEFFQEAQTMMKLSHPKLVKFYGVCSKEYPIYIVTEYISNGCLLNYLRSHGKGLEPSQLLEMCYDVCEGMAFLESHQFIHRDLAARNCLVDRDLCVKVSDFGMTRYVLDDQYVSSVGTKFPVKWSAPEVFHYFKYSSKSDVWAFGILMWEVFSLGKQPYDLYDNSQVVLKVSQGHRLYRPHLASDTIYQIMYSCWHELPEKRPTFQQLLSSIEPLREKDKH
UniProt Q06187: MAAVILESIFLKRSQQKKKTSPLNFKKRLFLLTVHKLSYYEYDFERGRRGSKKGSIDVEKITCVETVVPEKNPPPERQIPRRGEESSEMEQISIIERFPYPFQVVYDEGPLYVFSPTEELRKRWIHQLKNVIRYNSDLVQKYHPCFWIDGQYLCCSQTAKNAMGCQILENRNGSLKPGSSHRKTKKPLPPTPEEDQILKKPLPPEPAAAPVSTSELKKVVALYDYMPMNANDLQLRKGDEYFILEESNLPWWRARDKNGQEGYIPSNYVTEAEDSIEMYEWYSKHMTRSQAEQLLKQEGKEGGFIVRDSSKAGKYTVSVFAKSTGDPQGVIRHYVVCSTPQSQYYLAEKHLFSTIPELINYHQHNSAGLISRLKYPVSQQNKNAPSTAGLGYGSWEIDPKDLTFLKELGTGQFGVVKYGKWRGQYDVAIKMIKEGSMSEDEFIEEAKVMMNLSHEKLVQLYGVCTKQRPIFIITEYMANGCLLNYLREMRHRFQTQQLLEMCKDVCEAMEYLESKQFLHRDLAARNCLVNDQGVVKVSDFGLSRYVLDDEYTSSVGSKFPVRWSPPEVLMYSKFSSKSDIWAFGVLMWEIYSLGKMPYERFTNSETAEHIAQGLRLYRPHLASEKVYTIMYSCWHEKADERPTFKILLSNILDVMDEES

What was measured:
Conditions in all cases: K562; 2-18 h
STK38 = STK38 (UniProt Q15208); experiment: kinase-Nluc reporter destabilization hit call (1 = scored as downregulated) (binary); higher = compound decreases kinase abundance
SYK = SYK (UniProt P43405); experiment: as above
TEC = TEC (UniProt P42680); experiment: as above
TYK2 = TYK2 (UniProt P29597); experiment: as above
ULK3 = ULK3 (UniProt Q6PHR2); experiment: as above
YES1 = YES1 (UniProt P07947); experiment: as above
ZAK = ZAK (UniProt Q9NYL2); experiment: as above
ZAP70 = ZAP70 (UniProt P43403); experiment: as above
ABL1 = ABL1 (UniProt P00519); experiment: number of time points (of 5) at which kinase-Nluc abundance scored as decreased, DMSO-normalised (count); higher = more persistent destabilization
AKT1 = AKT1 (UniProt P31749); experiment: as above
ALK = ALK (UniProt Q9UM73); experiment: as above
ARAF = ARAF (UniProt P10398); experiment: as above
AURKA = AURKA (UniProt O14965); experiment: as above
AURKB = AURKB (UniProt Q96GD4); experiment: as above
AURKC = AURKC (UniProt Q9UQB9); experiment: as above
BLK = BLK (UniProt P51451); experiment: as above
BMX = BMX (UniProt P51813); experiment: as above
BRAF = BRAF (UniProt P15056); experiment: as above
BRAF_V600E = experiment: as above
BTK = BTK (UniProt Q06187); experiment: as above

CN1CCN(c2ccc(NC(=O)c3ccc(C#N)o3)c(N3CCCCC3)c2)CC1 (10 µM)
kinase-Nluc reporter destabilization hit call (STK38): inactive: 0 | kinase-Nluc reporter destabilization hit call (SYK): inactive: 0 | kinase-Nluc reporter destabilization hit call (TEC): inactive: 0 | kinase-Nluc reporter destabilization hit call (TYK2): inactive: 0 | kinase-Nluc reporter destabilization hit call (ULK3): inactive: 0 | kinase-Nluc reporter destabilization hit call (YES1): inactive: 0 | kinase-Nluc reporter destabilization hit call (ZAK): inactive: 0 | kinase-Nluc reporter destabilization hit call (ZAP70): inactive: 0 | number of time points (ABL1): 0 | number of time points (AKT1): 0 | number of time points (ALK): 0 | number of time points (ARAF): 0 | number of time points (AURKA): 0 | number of time points (AURKB): 0 | number of time points (AURKC): 0 | number of time points (BLK): 0 | number of time points (BMX): 0 | number of time points (BRAF): 0 | number of time points (BRAF_V600E): 0 | number of time points (BTK): 0

CN(C/C=C/C(=O)Nc1ccc(C(=O)Nc2cccc(Nc3ncc(Cl)c(-c4c[nH]c5ccccc45)n3)c2)cc1)CCCNC(=O)NCCOCCOCCOCCNC(=O)CCCC[C@@H]1SC[C@@H]2NC(=O)N[C@@H]21 (2.5 µM)
kinase-Nluc reporter destabilization hit call (STK38): inactive: 0 | kinase-Nluc reporter destabilization hit call (SYK): inactive: 0 | kinase-Nluc reporter destabilization hit call (TEC): inactive: 0 | kinase-Nluc reporter destabilization hit call (TYK2): inactive: 0 | kinase-Nluc reporter destabilization hit call (ULK3): inactive: 0 | kinase-Nluc reporter destabilization hit call (YES1): inactive: 0 | kinase-Nluc reporter destabilization hit call (ZAK): inactive: 0 | kinase-Nluc reporter destabilization hit call (ZAP70): inactive: 0 | number of time points (ABL1): 0 | number of time points (AKT1): 1 | number of time points (ALK): 3 | number of time points (ARAF): 0 | number of time points (AURKA): 3 | number of time points (AURKB): 2 | number of time points (AURKC): 2 | number of time points (BLK): 3 | number of time points (BMX): 2 | number of time points (BRAF): 3 | number of time points (BRAF_V600E): 1 | number of time points (BTK): 0

Cc1ccc(CNC(=O)N2CCC[C@]3(CCN(Cc4ccc(Cl)c(Cl)c4)C3)C2)cc1 (10 µM)
kinase-Nluc reporter destabilization hit call (STK38): inactive: 0 | kinase-Nluc reporter destabilization hit call (SYK): inactive: 0 | kinase-Nluc reporter destabilization hit call (TEC): inactive: 0 | kinase-Nluc reporter destabilization hit call (TYK2): inactive: 0 | kinase-Nluc reporter destabilization hit call (ULK3): inactive: 0 | kinase-Nluc reporter destabilization hit call (YES1): inactive: 0 | kinase-Nluc reporter destabilization hit call (ZAK): inactive: 0 | kinase-Nluc reporter destabilization hit call (ZAP70): inactive: 0 | number of time points (ABL1): 0 | number of time points (AKT1): 0 | number of time points (ALK): 0 | number of time points (ARAF): 0 | number of time points (AURKA): 0 | number of time points (AURKB): 0 | number of time points (AURKC): 0 | number of time points (BLK): 0 | number of time points (BMX): 0 | number of time points (BRAF): 0 | number of time points (BRAF_V600E): 0 | number of time points (BTK): 0

Cn1sc(=O)n(Cc2ccccc2)c1=O (10 µM)
kinase-Nluc reporter destabilization hit call (STK38): inactive: 0 | kinase-Nluc reporter destabilization hit call (SYK): inactive: 0 | kinase-Nluc reporter destabilization hit call (TEC): inactive: 0 | kinase-Nluc reporter destabilization hit call (TYK2): inactive: 0 | kinase-Nluc reporter destabilization hit call (ULK3): inactive: 0 | kinase-Nluc reporter destabilization hit call (YES1): inactive: 0 | kinase-Nluc reporter destabilization hit call (ZAK): inactive: 0 | kinase-Nluc reporter destabilization hit call (ZAP70): inactive: 0 | number of time points (ABL1): 0 | number of time points (AKT1): 0 | number of time points (ALK): 0 | number of time points (ARAF): 0 | number of time points (AURKA): 0 | number of time points (AURKB): 0 | number of time points (AURKC): 0 | number of time points (BLK): 0 | number of time points (BMX): 0 | number of time points (BRAF): 0 | number of time points (BRAF_V600E): 0 | number of time points (BTK): 0

C[C@H](Nc1ccc2c(c1)OCCn1cc(N3C(=O)OC[C@H]3C(F)F)nc1-2)C(N)=O (10 µM)
kinase-Nluc reporter destabilization hit call (STK38): inactive: 0 | kinase-Nluc reporter destabilization hit call (SYK): inactive: 0 | kinase-Nluc reporter destabilization hit call (TEC): inactive: 0 | kinase-Nluc reporter destabilization hit call (TYK2): inactive: 0 | kinase-Nluc reporter destabilization hit call (ULK3): inactive: 0 | kinase-Nluc reporter destabilization hit call (YES1): inactive: 0 | kinase-Nluc reporter destabilization hit call (ZAK): inactive: 0 | kinase-Nluc reporter destabilization hit call (ZAP70): inactive: 0 | number of time points (ABL1): 0 | number of time points (AKT1): 0 | number of time points (ALK): 0 | number of time points (ARAF): 0 | number of time points (AURKA): 0 | number of time points (AURKB): 0 | number of time points (AURKC): 0 | number of time points (BLK): 0 | number of time points (BMX): 0 | number of time points (BRAF): 0 | number of time points (BRAF_V600E): 0 | number of time points (BTK): 0

CNC(=O)c1ccc(-c2cnc3ncc(Cc4ccc5ncccc5c4)n3n2)cc1F [Capmatinib] (10 µM)
kinase-Nluc reporter destabilization hit call (STK38): inactive: 0 | kinase-Nluc reporter destabilization hit call (SYK): inactive: 0 | kinase-Nluc reporter destabilization hit call (TEC): inactive: 0 | kinase-Nluc reporter destabilization hit call (TYK2): inactive: 0 | kinase-Nluc reporter destabilization hit call (ULK3): inactive: 0 | kinase-Nluc reporter destabilization hit call (YES1): inactive: 0 | kinase-Nluc reporter destabilization hit call (ZAK): inactive: 0 | kinase-Nluc reporter destabilization hit call (ZAP70): inactive: 0 | number of time points (ABL1): 0 | number of time points (AKT1): 0 | number of time points (ALK): 0 | number of time points (ARAF): 0 | number of time points (AURKA): 0 | number of time points (AURKB): 0 | number of time points (AURKC): 0 | number of time points (BLK): 0 | number of time points (BMX): 0 | number of time points (BRAF): 0 | number of time points (BRAF_V600E): 0 | number of time points (BTK): 0

CC(C)(C)S(=O)(=O)c1cc2c(Nc3ccc4scnc4c3)ccnc2cc1OCCOCCOCCOCCOCC(=O)Nc1cccc2c1CN(C1CCC(=O)NC1=O)C2=O (stereo not given) [PROTAC RIPK degrader-6] (10 µM)
kinase-Nluc reporter destabilization hit call (STK38): inactive: 0 | kinase-Nluc reporter destabilization hit call (SYK): inactive: 0 | kinase-Nluc reporter destabilization hit call (TEC): inactive: 0 | kinase-Nluc reporter destabilization hit call (TYK2): inactive: 0 | kinase-Nluc reporter destabilization hit call (ULK3): inactive: 0 | kinase-Nluc reporter destabilization hit call (YES1): inactive: 0 | kinase-Nluc reporter destabilization hit call (ZAK): inactive: 0 | kinase-Nluc reporter destabilization hit call (ZAP70): inactive: 0 | number of time points (ABL1): 4 | number of time points (AKT1): 0 | number of time points (ALK): 0 | number of time points (ARAF): 0 | number of time points (AURKA): 0 | number of time points (AURKB): 0 | number of time points (AURKC): 0 | number of time points (BLK): 0 | number of time points (BMX): 0 | number of time points (BRAF): 0 | number of time points (BRAF_V600E): 0 | number of time points (BTK): 0

O=C(N/N=C/c1ccc([N+](=O)[O-])o1)c1ccc(O)cc1 [Nifuroxazide] (10 µM)
kinase-Nluc reporter destabilization hit call (STK38): inactive: 0 | kinase-Nluc reporter destabilization hit call (SYK): inactive: 0 | kinase-Nluc reporter destabilization hit call (TEC): inactive: 0 | kinase-Nluc reporter destabilization hit call (TYK2): inactive: 0 | kinase-Nluc reporter destabilization hit call (ULK3): inactive: 0 | kinase-Nluc reporter destabilization hit call (YES1): inactive: 0 | kinase-Nluc reporter destabilization hit call (ZAK): inactive: 0 | kinase-Nluc reporter destabilization hit call (ZAP70): inactive: 0 | number of time points (ABL1): 3 | number of time points (AKT1): 0 | number of time points (ALK): 1 | number of time points (ARAF): 0 | number of time points (AURKA): 1 | number of time points (AURKB): 0 | number of time points (AURKC): 0 | number of time points (BLK): 0 | number of time points (BMX): 1 | number of time points (BRAF): 1 | number of time points (BRAF_V600E): 0 | number of time points (BTK): 0

COc1ccc(C2CC(c3ccc(Cl)cc3)=NN2c2nc(-c3ccncc3)cs2)cc1 (stereo not given) [mTOR inhibitor-8] (10 µM)
kinase-Nluc reporter destabilization hit call (STK38): inactive: 0 | kinase-Nluc reporter destabilization hit call (SYK): inactive: 0 | kinase-Nluc reporter destabilization hit call (TEC): inactive: 0 | kinase-Nluc reporter destabilization hit call (TYK2): inactive: 0 | kinase-Nluc reporter destabilization hit call (ULK3): inactive: 0 | kinase-Nluc reporter destabilization hit call (YES1): inactive: 0 | kinase-Nluc reporter destabilization hit call (ZAK): inactive: 0 | kinase-Nluc reporter destabilization hit call (ZAP70): inactive: 0 | number of time points (ABL1): 0 | number of time points (AKT1): 0 | number of time points (ALK): 0 | number of time points (ARAF): 0 | number of time points (AURKA): 0 | number of time points (AURKB): 0 | number of time points (AURKC): 0 | number of time points (BLK): 2 | number of time points (BMX): 0 | number of time points (BRAF): 0 | number of time points (BRAF_V600E): 0 | number of time points (BTK): 0
